Experimental findings from PMC11101681 are described below.

Chains of the proteins cited; added tags and fusions are not shown.
UniProt Q9NVP2: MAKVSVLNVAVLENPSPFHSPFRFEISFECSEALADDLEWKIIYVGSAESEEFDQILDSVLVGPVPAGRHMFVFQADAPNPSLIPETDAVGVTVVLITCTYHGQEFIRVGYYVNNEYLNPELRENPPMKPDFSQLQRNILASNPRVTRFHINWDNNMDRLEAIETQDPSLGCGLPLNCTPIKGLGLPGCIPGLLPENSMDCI
UniProt P27694: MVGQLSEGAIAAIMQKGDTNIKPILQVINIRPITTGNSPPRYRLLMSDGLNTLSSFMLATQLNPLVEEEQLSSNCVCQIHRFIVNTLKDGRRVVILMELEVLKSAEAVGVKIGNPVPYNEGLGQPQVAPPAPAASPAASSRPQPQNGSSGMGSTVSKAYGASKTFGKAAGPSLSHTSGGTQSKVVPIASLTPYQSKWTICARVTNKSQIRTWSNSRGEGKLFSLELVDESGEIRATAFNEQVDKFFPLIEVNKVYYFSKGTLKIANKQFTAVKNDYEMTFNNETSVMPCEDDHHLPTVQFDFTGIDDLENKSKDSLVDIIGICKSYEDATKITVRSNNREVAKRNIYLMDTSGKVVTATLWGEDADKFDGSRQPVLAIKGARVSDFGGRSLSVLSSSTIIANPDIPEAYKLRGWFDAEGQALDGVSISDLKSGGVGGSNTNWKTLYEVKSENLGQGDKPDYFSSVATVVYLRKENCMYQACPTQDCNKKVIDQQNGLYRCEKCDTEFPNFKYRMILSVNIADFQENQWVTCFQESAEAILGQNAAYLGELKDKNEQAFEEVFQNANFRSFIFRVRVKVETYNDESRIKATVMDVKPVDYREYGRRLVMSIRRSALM
UniProt P39687: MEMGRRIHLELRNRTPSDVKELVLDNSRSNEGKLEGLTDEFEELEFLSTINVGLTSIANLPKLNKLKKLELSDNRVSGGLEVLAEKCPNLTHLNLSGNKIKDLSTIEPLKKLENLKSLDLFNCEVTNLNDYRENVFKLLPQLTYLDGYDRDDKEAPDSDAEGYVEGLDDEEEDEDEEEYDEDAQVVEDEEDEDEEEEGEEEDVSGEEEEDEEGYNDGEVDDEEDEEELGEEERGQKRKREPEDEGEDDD
UniProt Q9NRL2: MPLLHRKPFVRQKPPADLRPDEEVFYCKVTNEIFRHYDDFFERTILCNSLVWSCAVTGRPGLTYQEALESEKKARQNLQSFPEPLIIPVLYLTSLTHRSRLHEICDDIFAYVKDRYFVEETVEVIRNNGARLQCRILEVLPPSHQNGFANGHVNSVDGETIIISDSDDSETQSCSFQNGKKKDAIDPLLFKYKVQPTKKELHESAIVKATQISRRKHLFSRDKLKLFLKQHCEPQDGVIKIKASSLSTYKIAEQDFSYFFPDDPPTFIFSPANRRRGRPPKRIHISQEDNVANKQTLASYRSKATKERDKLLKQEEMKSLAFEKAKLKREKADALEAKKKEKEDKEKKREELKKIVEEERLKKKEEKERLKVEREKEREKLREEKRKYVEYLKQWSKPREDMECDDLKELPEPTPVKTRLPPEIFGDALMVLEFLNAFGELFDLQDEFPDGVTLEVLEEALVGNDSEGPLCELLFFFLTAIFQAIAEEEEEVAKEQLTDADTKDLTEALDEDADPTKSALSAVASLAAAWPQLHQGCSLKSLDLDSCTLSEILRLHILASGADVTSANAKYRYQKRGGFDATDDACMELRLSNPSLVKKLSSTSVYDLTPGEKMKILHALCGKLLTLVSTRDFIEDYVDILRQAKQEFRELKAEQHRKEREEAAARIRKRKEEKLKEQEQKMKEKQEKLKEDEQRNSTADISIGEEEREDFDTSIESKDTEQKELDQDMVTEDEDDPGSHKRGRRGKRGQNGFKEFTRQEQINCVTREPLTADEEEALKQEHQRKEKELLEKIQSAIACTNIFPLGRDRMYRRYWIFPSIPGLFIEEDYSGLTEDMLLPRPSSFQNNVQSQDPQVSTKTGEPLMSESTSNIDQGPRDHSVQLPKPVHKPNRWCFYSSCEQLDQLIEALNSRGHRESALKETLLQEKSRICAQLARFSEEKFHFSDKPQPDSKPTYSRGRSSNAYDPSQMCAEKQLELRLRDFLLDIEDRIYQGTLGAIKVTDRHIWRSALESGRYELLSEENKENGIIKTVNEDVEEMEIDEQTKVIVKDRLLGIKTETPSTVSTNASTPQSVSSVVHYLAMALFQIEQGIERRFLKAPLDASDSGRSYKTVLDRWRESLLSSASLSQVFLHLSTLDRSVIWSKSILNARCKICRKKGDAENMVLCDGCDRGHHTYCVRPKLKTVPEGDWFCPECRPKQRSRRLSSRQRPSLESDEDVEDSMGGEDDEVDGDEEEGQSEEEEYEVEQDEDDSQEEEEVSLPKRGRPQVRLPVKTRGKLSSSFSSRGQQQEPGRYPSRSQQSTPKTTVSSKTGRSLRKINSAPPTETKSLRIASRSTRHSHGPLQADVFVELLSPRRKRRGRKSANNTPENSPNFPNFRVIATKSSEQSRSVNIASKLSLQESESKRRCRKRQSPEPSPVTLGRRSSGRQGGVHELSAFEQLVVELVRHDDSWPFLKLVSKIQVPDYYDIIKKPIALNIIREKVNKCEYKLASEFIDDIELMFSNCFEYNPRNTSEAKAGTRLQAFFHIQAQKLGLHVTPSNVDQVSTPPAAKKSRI
UniProt Q9BRT9: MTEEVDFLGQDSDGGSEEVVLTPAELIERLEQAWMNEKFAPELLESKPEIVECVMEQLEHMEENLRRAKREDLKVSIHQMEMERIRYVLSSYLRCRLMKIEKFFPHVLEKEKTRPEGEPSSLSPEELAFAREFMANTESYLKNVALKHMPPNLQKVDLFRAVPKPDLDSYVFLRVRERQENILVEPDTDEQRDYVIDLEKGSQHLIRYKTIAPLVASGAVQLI
UniProt P09884: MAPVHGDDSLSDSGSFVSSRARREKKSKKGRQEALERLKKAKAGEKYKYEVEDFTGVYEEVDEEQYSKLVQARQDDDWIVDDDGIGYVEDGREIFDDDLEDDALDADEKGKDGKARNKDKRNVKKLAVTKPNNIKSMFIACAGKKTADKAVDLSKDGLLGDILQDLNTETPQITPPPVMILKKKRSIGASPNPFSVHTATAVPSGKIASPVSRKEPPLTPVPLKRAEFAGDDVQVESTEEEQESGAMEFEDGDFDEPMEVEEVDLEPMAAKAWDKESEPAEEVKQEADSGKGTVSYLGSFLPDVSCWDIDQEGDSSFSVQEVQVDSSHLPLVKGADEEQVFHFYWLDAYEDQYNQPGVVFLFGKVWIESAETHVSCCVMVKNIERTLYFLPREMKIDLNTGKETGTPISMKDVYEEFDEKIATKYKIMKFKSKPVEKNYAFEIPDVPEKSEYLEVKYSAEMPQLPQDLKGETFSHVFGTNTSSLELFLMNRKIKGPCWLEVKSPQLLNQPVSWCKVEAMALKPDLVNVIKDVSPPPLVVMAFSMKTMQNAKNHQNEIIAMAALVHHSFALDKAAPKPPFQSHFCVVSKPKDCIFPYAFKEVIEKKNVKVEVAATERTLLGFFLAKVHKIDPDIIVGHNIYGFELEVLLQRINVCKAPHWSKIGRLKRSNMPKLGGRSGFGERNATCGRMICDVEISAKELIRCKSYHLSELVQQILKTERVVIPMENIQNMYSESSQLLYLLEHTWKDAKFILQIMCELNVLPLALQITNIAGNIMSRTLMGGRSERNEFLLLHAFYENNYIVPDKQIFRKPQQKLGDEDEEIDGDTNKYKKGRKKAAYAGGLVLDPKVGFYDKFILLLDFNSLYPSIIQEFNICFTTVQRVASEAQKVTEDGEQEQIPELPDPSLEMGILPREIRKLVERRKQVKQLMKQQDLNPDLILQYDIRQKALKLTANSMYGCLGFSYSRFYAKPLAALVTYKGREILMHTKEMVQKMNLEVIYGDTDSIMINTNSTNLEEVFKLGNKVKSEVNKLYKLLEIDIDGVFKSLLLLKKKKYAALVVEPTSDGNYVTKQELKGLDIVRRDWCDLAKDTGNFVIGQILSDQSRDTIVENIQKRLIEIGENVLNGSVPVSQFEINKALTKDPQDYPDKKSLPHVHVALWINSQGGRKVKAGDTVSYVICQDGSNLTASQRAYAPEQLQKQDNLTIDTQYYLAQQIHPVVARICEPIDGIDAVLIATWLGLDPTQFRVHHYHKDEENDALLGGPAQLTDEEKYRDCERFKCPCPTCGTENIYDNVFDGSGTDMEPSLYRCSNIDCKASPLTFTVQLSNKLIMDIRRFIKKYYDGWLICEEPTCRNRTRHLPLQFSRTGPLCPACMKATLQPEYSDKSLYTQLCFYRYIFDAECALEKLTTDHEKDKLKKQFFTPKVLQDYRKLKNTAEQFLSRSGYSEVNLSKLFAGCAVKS
UniProt Q9UKI8: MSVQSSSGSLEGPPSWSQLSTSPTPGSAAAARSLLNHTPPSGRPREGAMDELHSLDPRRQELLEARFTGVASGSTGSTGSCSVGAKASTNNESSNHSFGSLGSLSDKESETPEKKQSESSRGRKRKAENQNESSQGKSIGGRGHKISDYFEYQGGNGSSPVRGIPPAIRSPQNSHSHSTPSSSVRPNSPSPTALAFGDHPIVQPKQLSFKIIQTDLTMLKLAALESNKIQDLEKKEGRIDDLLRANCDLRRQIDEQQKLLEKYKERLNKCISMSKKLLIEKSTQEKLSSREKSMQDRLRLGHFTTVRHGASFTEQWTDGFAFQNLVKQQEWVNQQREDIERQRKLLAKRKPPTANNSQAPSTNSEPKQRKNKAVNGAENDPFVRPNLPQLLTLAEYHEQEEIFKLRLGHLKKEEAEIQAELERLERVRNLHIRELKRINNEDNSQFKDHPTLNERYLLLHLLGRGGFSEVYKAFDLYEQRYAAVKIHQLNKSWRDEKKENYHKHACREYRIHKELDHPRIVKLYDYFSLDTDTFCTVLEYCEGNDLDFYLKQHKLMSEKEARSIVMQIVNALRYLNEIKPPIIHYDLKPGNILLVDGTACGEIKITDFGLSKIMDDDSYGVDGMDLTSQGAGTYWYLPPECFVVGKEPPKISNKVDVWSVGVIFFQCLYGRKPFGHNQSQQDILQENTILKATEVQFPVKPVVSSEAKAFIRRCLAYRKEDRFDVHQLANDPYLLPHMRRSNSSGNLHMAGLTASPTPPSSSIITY

Holding throughout (assay): proximity labelling; BioID2 fused N-terminally to the bait in stable HEK293 Flp-In T-REx cells; doxycycline 48 h, 50 uM biotin for the last 24 h, with or without 1 mM hydroxyurea for the last 24 h; lysis in 8 M urea, streptavidin sepharose, trypsin, LC-MS/MS; hits by SAINT score >=0.95 against the 293FT control and AvgSpec >=5
Experiment [1] deals with T1, POLE4 (Flag-BIOID2-POLE4) (human (cDNA library of U2OS cells)) (UniProt Q9NR33).
T1 sequence: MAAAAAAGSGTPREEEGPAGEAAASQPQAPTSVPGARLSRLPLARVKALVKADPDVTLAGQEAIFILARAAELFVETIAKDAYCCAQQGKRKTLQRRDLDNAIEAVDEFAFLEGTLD

Experiment [2] deals with ASF1B (3xMyc-BioID2-ASF1B) (human (cDNA library of U2OS cells)) (UniProt Q9NVP2).
Experiment [3] deals with T2, GINS1 (FLAG-BioID2 fusion bait) (human (cDNA library of U2OS cells)) (UniProt Q14691).
T2 sequence: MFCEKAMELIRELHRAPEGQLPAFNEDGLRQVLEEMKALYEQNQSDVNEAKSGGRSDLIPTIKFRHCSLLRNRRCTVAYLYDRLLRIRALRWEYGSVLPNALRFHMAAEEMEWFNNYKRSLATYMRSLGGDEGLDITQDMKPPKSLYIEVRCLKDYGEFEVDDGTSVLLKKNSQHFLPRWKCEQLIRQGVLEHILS

For experiment [4], the target named is T3, GINS2 (Flag-BIOID2-GINS2) (human (cDNA library of U2OS cells)) (UniProt Q9Y248).
T3 sequence: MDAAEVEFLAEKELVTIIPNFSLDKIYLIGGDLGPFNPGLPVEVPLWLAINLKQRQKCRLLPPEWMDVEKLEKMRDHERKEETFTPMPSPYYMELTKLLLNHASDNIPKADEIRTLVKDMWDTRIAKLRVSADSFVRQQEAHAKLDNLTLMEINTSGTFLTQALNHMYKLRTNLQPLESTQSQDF

The target in experiment [5] is T4, WDHD1 (FLAG-BioID2 fusion bait) (human (cDNA library of U2OS cells)) (UniProt O75717).
T4 sequence: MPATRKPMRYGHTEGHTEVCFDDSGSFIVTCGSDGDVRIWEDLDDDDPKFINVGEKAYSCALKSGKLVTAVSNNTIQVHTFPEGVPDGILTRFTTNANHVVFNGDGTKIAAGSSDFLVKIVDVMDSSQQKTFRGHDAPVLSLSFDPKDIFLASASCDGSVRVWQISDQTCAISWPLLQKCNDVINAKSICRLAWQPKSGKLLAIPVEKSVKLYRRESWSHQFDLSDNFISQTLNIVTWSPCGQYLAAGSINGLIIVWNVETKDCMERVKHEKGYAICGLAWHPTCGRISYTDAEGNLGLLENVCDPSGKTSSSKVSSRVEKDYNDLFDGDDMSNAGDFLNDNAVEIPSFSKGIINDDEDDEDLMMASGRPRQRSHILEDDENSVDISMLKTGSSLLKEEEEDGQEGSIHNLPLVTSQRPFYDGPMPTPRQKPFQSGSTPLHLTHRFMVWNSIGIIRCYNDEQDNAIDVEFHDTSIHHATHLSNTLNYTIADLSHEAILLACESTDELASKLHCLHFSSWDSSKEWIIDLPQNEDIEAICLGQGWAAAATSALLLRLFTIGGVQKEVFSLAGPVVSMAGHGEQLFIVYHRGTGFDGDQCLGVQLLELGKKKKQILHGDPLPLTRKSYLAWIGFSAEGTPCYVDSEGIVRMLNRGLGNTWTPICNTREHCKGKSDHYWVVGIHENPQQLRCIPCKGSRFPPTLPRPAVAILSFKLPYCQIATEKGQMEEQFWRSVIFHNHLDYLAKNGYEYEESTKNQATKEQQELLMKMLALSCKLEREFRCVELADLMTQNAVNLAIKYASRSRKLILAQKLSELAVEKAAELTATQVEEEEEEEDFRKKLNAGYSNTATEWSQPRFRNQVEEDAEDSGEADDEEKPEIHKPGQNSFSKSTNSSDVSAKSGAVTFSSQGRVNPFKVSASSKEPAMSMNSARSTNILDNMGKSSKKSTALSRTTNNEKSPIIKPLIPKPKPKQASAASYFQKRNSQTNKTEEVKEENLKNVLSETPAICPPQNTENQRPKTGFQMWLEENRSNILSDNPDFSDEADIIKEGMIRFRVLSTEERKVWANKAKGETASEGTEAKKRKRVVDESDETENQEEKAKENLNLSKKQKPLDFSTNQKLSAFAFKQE

Experiment [6] addresses RPA1 (3MYC-BioID2 fusion bait) (UniProt P27694).
In experiment [7] the target is T5, RPA4 (3MYC-BioID2 fusion bait) (UniProt Q13156).
T5 sequence: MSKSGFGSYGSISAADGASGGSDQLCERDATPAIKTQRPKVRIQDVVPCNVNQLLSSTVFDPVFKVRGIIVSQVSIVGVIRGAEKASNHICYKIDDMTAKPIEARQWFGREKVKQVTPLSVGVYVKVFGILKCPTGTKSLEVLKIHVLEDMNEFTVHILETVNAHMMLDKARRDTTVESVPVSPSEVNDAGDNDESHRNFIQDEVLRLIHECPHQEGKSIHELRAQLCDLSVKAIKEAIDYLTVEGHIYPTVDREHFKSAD

These are yes or no findings as the source states them, for the method shown. In cells and extracts the contact can be indirect. Here binding means that the protein was enriched with, or labelled near, the bait; the list need not be complete. For some of these results: Tags and fused reporters may be left off the sequences shown.

Take “Acidic leucine-rich nuclear phosphoprotein 32 family member A (ANP32A) (from UniProt P39687 1-249)”: the binding result in experiment [1] is “binds”.
Still for that read-out and setting: next, BAZ1A (from UniProt Q9NRL2 1-1556): “binds”.
CHD8 (from UniProt Q9HCK8 1-2581): the binding entry in experiment [2] is listed as “binds”.
As to “GINS4 (FLAG-BioID2 fusion bait) (from UniProt Q9BRT9 1-223)”, the binding result in experiment [3], in experiment [4] and in experiment [5] was “binds” throughout.
For the substance “POLA1, catalytic subunit of Pol alpha (from UniProt P09884 1-1462)”, the binding entry in experiment [6] and in experiment [5] was “binds” in each case.
For TLK1 kinase (from UniProt Q9UKI8 1-766), the binding entry in experiment [2] was “binds”.
In the case of TP53 (from UniProt P04637 1-393), the binding result in experiment [7] was “binds”.
